The experiment addresses Drosophila Ccdc85 (Drosophila) (UniProt Q9VQK1). Description: co-IP; as a1, FLAG-Ccdc85 IP from S2 cells without ASPP co-transfection (S2 cells do not express endogenous ASPP).

Chains of the proteins cited; added tags and fusions are not shown. Lines headed by an entry give the natural chain unless they say otherwise; changes in a name come on top.
UniProt Q9VQK1: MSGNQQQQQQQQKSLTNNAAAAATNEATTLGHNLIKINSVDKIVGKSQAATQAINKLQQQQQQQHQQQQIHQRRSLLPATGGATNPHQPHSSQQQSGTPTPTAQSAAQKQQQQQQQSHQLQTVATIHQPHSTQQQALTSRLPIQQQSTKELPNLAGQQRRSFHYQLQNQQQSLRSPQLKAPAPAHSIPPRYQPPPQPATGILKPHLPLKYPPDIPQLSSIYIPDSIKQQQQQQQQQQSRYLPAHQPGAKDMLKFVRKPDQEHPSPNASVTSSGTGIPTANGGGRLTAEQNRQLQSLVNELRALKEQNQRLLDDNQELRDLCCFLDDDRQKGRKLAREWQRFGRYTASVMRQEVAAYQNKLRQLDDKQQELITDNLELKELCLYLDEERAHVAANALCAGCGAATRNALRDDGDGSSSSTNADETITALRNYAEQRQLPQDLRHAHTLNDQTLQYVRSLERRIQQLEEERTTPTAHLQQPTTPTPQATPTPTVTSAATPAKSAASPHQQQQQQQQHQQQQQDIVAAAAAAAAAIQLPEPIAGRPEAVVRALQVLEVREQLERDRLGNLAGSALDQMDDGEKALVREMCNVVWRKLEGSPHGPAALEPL
UniProt P48461: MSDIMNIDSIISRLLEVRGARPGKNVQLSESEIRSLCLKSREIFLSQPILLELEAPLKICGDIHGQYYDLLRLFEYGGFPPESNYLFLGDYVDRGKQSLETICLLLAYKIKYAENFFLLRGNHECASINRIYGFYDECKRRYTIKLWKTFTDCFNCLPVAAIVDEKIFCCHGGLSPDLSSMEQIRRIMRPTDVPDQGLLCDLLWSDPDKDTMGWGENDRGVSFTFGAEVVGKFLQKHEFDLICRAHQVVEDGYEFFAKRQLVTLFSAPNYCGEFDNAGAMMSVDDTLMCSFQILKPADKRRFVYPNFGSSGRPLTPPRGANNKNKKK

This passage reports binding results from PMC6377682.

No constants are given. Whether binding was seen depends on the method and setting. Binding seen in cells or lysates may run through a third protein. A result given as binding can be weak or reduced; the word gives no strength.

As to “Drosophila PP1α96A (from UniProt P48461 1-327) (enzyme)”, the binding result is on record as “binds weakly”.
